Data from PubChem BioAssay AID504327 (National Center for Advancing Translational Sciences (NCATS), 2011).
Out of some 390,000 compounds screened, about 820 (0.21%) were called active. Inconclusive means that the source gave no clear call. Such entries were picked first, then a sample of the others. The call rests on the fitted dose curve; in most records, active means well fitted inhibition curve with a large enough effect; inconclusive means small, poorly fitted or top-dose-only effect, or another doubt; inactive means no such curve, though single readings can be large or run the other way. Potencies beside an inconclusive call are fits to weak or partial responses and may not hold up.

Chains of the proteins cited; added tags and fusions are not shown.
UniProt Q92830, whole entry, looked up: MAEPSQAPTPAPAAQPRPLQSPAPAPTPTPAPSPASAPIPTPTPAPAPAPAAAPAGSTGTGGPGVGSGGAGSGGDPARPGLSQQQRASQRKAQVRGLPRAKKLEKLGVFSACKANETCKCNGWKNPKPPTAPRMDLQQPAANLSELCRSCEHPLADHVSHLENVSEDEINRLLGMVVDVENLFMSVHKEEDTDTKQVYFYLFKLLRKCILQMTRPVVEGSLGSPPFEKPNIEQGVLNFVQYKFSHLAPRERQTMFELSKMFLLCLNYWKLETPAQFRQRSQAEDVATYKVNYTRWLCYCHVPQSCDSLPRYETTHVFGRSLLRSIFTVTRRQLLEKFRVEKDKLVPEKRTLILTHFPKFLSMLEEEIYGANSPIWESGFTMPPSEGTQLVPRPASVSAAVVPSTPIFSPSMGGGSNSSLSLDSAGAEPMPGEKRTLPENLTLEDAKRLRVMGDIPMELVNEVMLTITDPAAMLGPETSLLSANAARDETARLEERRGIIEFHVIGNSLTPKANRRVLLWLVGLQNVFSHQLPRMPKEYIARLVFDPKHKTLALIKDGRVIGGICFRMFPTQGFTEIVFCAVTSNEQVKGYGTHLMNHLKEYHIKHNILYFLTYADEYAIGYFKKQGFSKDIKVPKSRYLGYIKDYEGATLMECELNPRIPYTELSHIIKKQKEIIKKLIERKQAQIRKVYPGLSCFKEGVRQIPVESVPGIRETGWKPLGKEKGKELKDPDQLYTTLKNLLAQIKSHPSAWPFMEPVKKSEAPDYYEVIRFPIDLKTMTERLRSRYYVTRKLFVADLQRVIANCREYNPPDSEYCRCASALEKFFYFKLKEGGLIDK

target: Histone acetyltransferase KAT2A (Homo sapiens) (UniProt Q92830); test: qHTS Assay for Inhibitors of GCN5L2; details: GCN5L2 HAT assay, ThioGlo1 CoA-SH fluorescence; activity change, negative = inhibition: at 58.9 µM (top of the series) unless noted
Summary of the method: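 GCN5L2 (20nM final) in 50mM HEPES, 0.1mM EDTA pH 7.5, 0.01% Tween-20 was preincubated 15 min at room temperature with compound, then given ThioGlo1 (50uM), H3(1-25) peptide (75uM) and acetyl-CoA (70uM); CoA-thiol fluorescence (Ex340/Em540) was read at 0 and 20 min.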
On the % scale 0 is the no-effect control and ±100 the full control effect; potency means the concentration at half of the fitted maximal effect.

| SMILES | Potency | activity change, negative = inhibition |
| --- | --- | --- |
| O=C(Nc1ccc(Br)cc1Cl)c1ccc2c(=O)n3c(nc2c1)CCC3 | inconclusive: 28.2 µM [inhibitor, single point] |  |
| CCCCC(CC)COC(=O)CC(C(=O)OCC(CC)CCCC)S(=O)(=O)O (configuration not stated) | inconclusive: 31.6 µM [inhibitor, single point] |  |
| CCN(CC)c1ccc(NC(=O)c2ccccc2Br)cc1S(=O)(=O)Nc1ccccc1OC | inconclusive: 14.1 µM [inhibitor, partial curve] |  |
| C=CCNC(=O)c1cc2c(=O)n3ccccc3nc2s1 | inconclusive: 39.8 µM [inhibitor, single point] |  |
| Cc1ccnc2nc(C(=O)NC3CCCc4ccccc43)nn12 (configuration not stated) | inconclusive: 0.891 µM [inhibitor, single point] |  |
| C(=Nc1ccc(Nc2ccccc2)cc1)c1ccc2ccccc2c1 |  | inactive: 0.351% |
| O=C(O)C(c1ccccc1)N1C(=O)/C(=C\c2ccc(-c3ccc(Br)cc3)o2)SC1=S (configuration not stated) | inconclusive: 31.6 µM [inhibitor, single point] |  |
| O=C(c1cc(COc2ccc(F)cc2F)on1)N1CCN(C(=O)c2ccco2)CC1 | inconclusive: 6.31 µM [inhibitor, single point] |  |
| Cc1ccc(CNC(=O)c2ccc3c(c2)NC(=O)C(CS(=O)(=O)Cc2cccc(F)c2)N3)cc1 (configuration not stated) |  | inactive: -0.691% |
| COc1cccc(N2CC(=O)N(NC(=O)c3sc4nc(C)cc(C)c4c3N)CC2=O)c1 | inconclusive: 35.5 µM [inhibitor, single point] |  |
| CN1CCN(CC(=O)N2c3ccccc3C(=O)Nc3cccnc32)CC1 | inconclusive: 39.8 µM [inhibitor, single point] |  |
| COc1ccc(C)cc1NC(=O)c1cc(S(=O)(=O)N2CCCC2)cn1C | inconclusive: 39.8 µM [inhibitor, single point] |  |
| O=C(O)c1cccc(NC(=S)N/N=C/c2ccccc2OCc2ccc(Br)cc2)c1 | inconclusive: 35.5 µM [inhibitor, single point] |  |
| COc1ccc(NC(=O)COC(=O)c2cc(C)oc2C)c([N+](=O)[O-])c1 | inconclusive: 39.8 µM [inhibitor, single point] |  |
| COC(=O)c1ccc2c(=O)n(CCCCCC(=O)N3CCN(c4cccc(C)c4C)CC3)c(=O)[nH]c2c1 |  | inactive: 2.38% |
| OCCCc1nc2n(n1)C(c1ccccc1)C=C(c1ccc(F)cc1)N2 (configuration not stated) | inconclusive: 31.6 µM [inhibitor, single point] |  |
| Nc1c(C(=O)NCC2CCCO2)sc2nc3c(c(-c4ccco4)c12)CC/C3=C\c1ccco1 (configuration not stated) | inconclusive: 25.1 µM [inhibitor, partial curve] |  |
| CCOCCOC(=O)C1=C(C)NC(=O)NC1c1cc2c(cc1Br)OCO2 (configuration not stated) | inconclusive: 7.08 µM [inhibitor, single point] |  |
| O=C(c1cccc2c1-c1ccccc1C2)N1CCCCC1 | inconclusive: 7.08 µM [inhibitor, full curve, poor fit] |  |
| Cc1ccc(CSCc2ccc(C(=O)NCCC(C)C)o2)cc1 | inconclusive: 0.708 µM [inhibitor, full curve, poor fit] |  |
| CN1CCN(c2ncncc2-c2cccnc2)CC1 | active: 0.891 µM |  |

| SMILES | Potency | activity change, negative = inhibition |
| --- | --- | --- |
| Clc1ccc(OCc2cnc(Cl)s2)cc1 | inconclusive: 39.8 µM [inhibitor, single point] |  |
| OCCN1CCN(c2ncnc3c2sc2nc(N4CCOCC4)c4c(c23)CCC4)CC1 |  | inactive: -6.38% |
| CCN(CC)c1ccc(S(=O)(=O)N2CCOCC2)cc1NC(=O)CSC(=S)N1CCCC1 | inconclusive: 1 µM [inhibitor, full curve, poor fit] |  |
| Nc1ccc2c(c1)C(=O)C(=O)c1ccccc1-2 |  | inactive: -18.8% [at 0.501 µM] |
| CCOC(=O)/C(C#N)=C\c1ccc(OCC(=O)Nc2ccc(C)cc2C)c(OC)c1 | inconclusive: 39.8 µM [inhibitor, single point] |  |
| Cc1ccccc1Cn1c2ccccc2c2cnn(CC(=O)NCCCN3CCN(C)CC3)c(=O)c21 | inconclusive: 1 µM [inhibitor, full curve, poor fit] |  |
| Cc1ccc2[nH]c(=O)c(CN(CCc3ccccc3)C(c3nnnn3Cc3ccco3)C(C)C)cc2c1 (configuration not stated) | inconclusive: 39.8 µM [inhibitor, single point] |  |
| COc1ccccc1Nc1ccc(NC(=O)c2cccc([N+](=O)[O-])c2C)cc1 |  | inactive: -34.6% |
| CN(C)C(=C(C#N)C#N)N1CCN(c2ccc(Cl)c(Cl)c2)CC1 | inconclusive: 3.16 µM [inhibitor, partial curve] |  |
| CC(=O)Nc1ccc(S(=O)(=O)N2CCN(c3cnn(C)c(=O)c3Cl)CC2)cc1 | inconclusive: 12.6 µM [inhibitor, partial curve] |  |
| O=Cc1ccc(-c2ccccc2C(=O)O)o1 | inconclusive: 39.8 µM [inhibitor, single point] |  |
| N#C/C(C(N)=O)=C1/CCc2ccccc2N1 |  | inconclusive: -70.5% [inhibitor] |
| Cc1ccc(C(=O)O/N=C2\CCCc3ccccc32)cc1 | inconclusive: 2.82 µM [inhibitor, single point] |  |
| O=C(Oc1cccc2ccccc12)C1CC1 | inconclusive: 39.8 µM [inhibitor, single point] |  |
| CCOC(=O)CSc1nnc(-c2ccc([N+](=O)[O-])cc2)o1 | inconclusive: 0.794 µM [inhibitor, single point] |  |
| CCc1ccc(N2CC(C(=O)Nc3ccc4c(c3)OCO4)CC2=O)cc1 (configuration not stated) |  | inactive: 1.46% |
| Cc1c(C(=O)N(C)C)sc2c1c(=O)n(-c1ccc(Cl)cc1)c(=O)n2CC(=O)C(C)(C)C |  | inactive: -5.52% |
| CC1CC(C)CN(C(=O)c2ccccc2Nc2ccc(SC(F)F)cc2)C1 (configuration not stated) | inconclusive: 1.12 µM [inhibitor, full curve] |  |
| Cc1ccc(NC(=O)Cn2nc(N3CCN(c4ccccc4)CC3)ccc2=O)cc1F |  | inactive: 12.7% |
| O=C(CN1CCC(NC(=O)c2ccc(F)cc2)CC1)NCc1ccccc1F | inconclusive: 0.708 µM [inhibitor, full curve, poor fit] |  |
| Cc1ccc(N2CC(NC(=O)c3cccc(Cl)c3)CC2=O)cc1C (configuration not stated) |  | inactive: 3.83% |

Looked up by compound from the list above, 2 records:

| SMILES | Potency | activity change, negative = inhibition |
| --- | --- | --- |
| Cc1ccc(C(=O)O/N=C2\CCCc3ccccc32)cc1 | inconclusive: 2.82 µM [inhibitor, single point] |  |
| Clc1ccc(OCc2cnc(Cl)s2)cc1 | inconclusive: 39.8 µM [inhibitor, single point] |  |
